# Reference: PubChem BioAssay AID504791 (Drosophila RNAi Screening Center, 2011)
# Aim: 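Genes of the fly required for silencing by miRNA, siRNA or endo-siRNA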 (primary screen)
# System: Drosophila S2-derived reporter cells
# Reagent: long dsRNA against Drosophila genes, about 150-250 ng dsRNA per well (siRNA assay); about 80-120 ng (miRNA assay)
# Timing: about 5 days (siRNA assay); about 4 days (miRNA assay)
# Challenge: copper sulfate induction of reporters: 25 µM (siRNA assay); 200 mM stated (miRNA assay), 1-2 days before reading
# Measured: 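Dual luciferase assay: Renilla to firefly signal ratio in each well, scaled to the mean ratio of its plate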
# Reading the numbers: siRNA reporter hit score: higher = 3 marks a strong hit with raised ratio; -3 a strong hit with lowered ratio
# Active means: 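First-pass picks had plate-scaled ratios over 1.5 for the siRNA assay, over 1.6 for the miRNA assay, or under 0.6; two distinct dsRNAs had to score alike on retest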
# The deposit covers about 23,000 reagents; shown is an unselected part of those with a known target gene and a result. In the full data, 199 (0.86%) are marked active. 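Plate-scaled ratios behind the calls are not deposited; printed light signals are raw; many rows marked increased or decreased are still called inactive.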 Reagents against one gene are numbered here. A plus sign joins genes that one reagent is predicted to hit.
gene,dsRNA no.,siRNA reporter hit score,stable siRNA reporter change,miRNA reporter change,"stable assay Renilla, run 1 (luminescence)","stable assay firefly, run 1 (luminescence)",Outcome
CG11723,1,,,,9705,4.12e5,inactive
CG13407,1,,,,8274,3.84e5,inactive
Sec15,1,,,,6566,4.22e5,inactive
jv,1,,,,4728,3.24e5,inactive
jv,2,,,,5152,4.09e5,inactive
prim,1,,,,7344,4.19e5,inactive
CG30466,1,,,,6491,3.46e5,inactive
CG1092,1,,,,7350,2.85e5,inactive
MED28,1,,,,5838,3.74e5,inactive
CG13891,1,,,,5846,3.29e5,inactive
Prp40,1,,,,26581,3.83e5,inactive
CG10147,1,,,,5447,3.57e5,inactive
CheB74a,1,,,,5004,3.94e5,inactive
CG42271,1,,,,9181,6.00e5,inactive
CG42271,2,,,,4444,4.12e5,inactive
CG14322,1,,,,7839,4.89e5,inactive
trv,1,,,,3635,3.09e5,inactive
trv,2,,,,5722,3.60e5,inactive
trv,3,,,,6726,4.57e5,inactive
trv,4,,,,6398,3.79e5,inactive
Cyp301a1,1,,,,5460,2.38e5,inactive
CCHa1-R,1,,,,5514,2.88e5,inactive
CCHa1-R,2,,,,5818,2.94e5,inactive
Lasp,1,,reporter ratio raised past the hit cutoff,,7638,2.28e5,inactive
dpr5,1,,,,7192,3.95e5,inactive
Atg10 + CG18853 + CG12822,1,,,,4519,3.28e5,inactive
frm,1,,,,3004,1.97e5,inactive
CG4734,1,,,,6235,3.71e5,inactive
CG4734,2,,,,8866,6.09e5,inactive
Pa1,1,,,,4576,4.18e5,inactive
CG34320 (retired record),1,,,,7670,4.32e5,inactive
Shark,1,,,,8102,3.45e5,inactive
stac,1,,,,4263,3.13e5,inactive
stac,2,,,,8308,4.61e5,inactive
stac,3,,,,8931,5.63e5,inactive
Acat2,1,,,,5500,3.25e5,inactive
IFT43,1,,,,14788,1.70e6,inactive
Ctr1C,1,,,,6371,3.33e5,inactive
CG7031,1,,reporter ratio raised past the hit cutoff,,7306,2.14e5,inactive
CG7031,2,,,,5656,3.91e5,inactive
CG4768,1,,reporter ratio lowered past the hit cutoff,,5551,5.50e5,inactive
RpL24-like,1,,,,6190,3.16e5,inactive
Tl,1,,,,7754,4.84e5,inactive
tamo,1,,,reporter ratio raised past the hit cutoff,10254,1.13e6,inactive
Adsl,1,,,,7054,2.95e5,inactive
PLCXD,1,,,,4563,3.37e5,inactive
CG13708,1,,,,6414,4.10e5,inactive
Mlp60A,1,,,,5294,4.38e5,inactive
Mlp60A,2,,,,10354,5.10e5,inactive
Mlp60A,3,,,,2340,2.58e5,inactive
Prp3,1,,,,8579,3.50e5,inactive
dom,1,,,,4.30e5,5.14e5,inactive
dom,2,,,reporter ratio lowered past the hit cutoff,5444,4.30e5,active
GlcAT-I,1,,,,6371,2.71e5,inactive
CG11227,1,,,,5276,2.79e5,inactive
CG2736,1,,,,20266,1.64e6,inactive
wake,1,,,,7194,2.81e5,inactive
wake,2,,,,6224,3.27e5,inactive
crq,1,,,,8491,6.07e5,inactive
Ptth,1,,,,7794,4.12e5,inactive
drk,1,,,,7030,3.54e5,inactive
Jon99Cii,1,,,,6187,3.63e5,inactive
Jon99Cii,2,,,,5052,5.51e5,inactive
tst + CG10375,1,,,,10762,4.16e5,inactive
Btnd,1,,,,5407,2.86e5,inactive
lama,1,,,,7531,3.32e5,inactive
Gk2,1,,,,11078,4.64e5,inactive
CG11970,1,,,,8920,6.15e5,inactive
CG6495,1,,,,7192,7.28e5,inactive

Just “stable assay Renilla, run 1 (luminescence)” (14 entries from above):
CG4734 #1: 6235
CG4734 #2: 8866
Pa1: 4576
CG34320 (retired record): 7670
Shark: 8102
stac #1: 4263
stac #2: 8308
stac #3: 8931
Acat2: 5500
IFT43: 14788
Ctr1C: 6371
CG7031 #1: 7306
CG7031 #2: 5656
CG4768: 5551

Continued.
gene,dsRNA no.,siRNA reporter hit score,stable siRNA reporter change,miRNA reporter change,"stable assay Renilla, run 1 (luminescence)","stable assay firefly, run 1 (luminescence)",Outcome
Nep6,1,,,,8715,3.73e5,inactive
CG7378,1,,,,6075,3.82e5,inactive
CG13720,1,,reporter ratio raised past the hit cutoff,,8242,3.44e5,active
Lap1,1,,,,6066,2.92e5,inactive
Gnmt,1,,,,6908,4.10e5,inactive
CG14471 (retired record),1,,,,11287,1.36e6,inactive
klar,1,,,,11690,4.32e5,inactive
klar,2,,,,4696,4.63e5,inactive
Fim,1,,,,9058,4.71e5,inactive
CG6726,1,,,,6786,3.33e5,inactive
qless,1,,,,6270,4.46e5,inactive
qless,2,,,,6011,5.52e5,inactive
CG30486,1,,,,5279,3.06e5,inactive
CG42541,1,,,,5840,3.02e5,inactive
CG42541,2,,,reporter ratio raised past the hit cutoff,5143,1.91e5,inactive
CG42541,3,,,,5296,3.69e5,inactive
Prosbeta6,1,-3,reporter ratio raised past the hit cutoff,,11645,2.07e5,active
CG31928,1,,,,18910,2.22e5,inactive
Hel25E,1,,,,71011,4.13e5,inactive
GlcAT-S,1,,,,11039,7.92e5,inactive
CG40298,1,,,,9777,7.23e5,inactive
tap,1,,,,6471,3.69e5,inactive
Mipp2,1,,,,7475,4.41e5,inactive
CG13203,1,,,,6552,3.10e5,inactive
sc,1,,,,6215,4.79e5,inactive
brv3,1,,,,6196,3.08e5,inactive
yellow-c + CIAPIN1,1,,,,7631,3.96e5,inactive
CG18542 + CG32939,1,,,,8369,3.83e5,inactive
OtopLa,1,,,,4279,3.61e5,inactive
OtopLa,2,,,,5263,3.48e5,inactive
OtopLa,3,,,,5298,2.94e5,inactive
CG15561,1,,,,5447,3.82e5,inactive
kipf,1,,,,3891,3.42e5,inactive
kipf,2,,,,3592,3.37e5,inactive
CG8152,1,,,,7064,3.29e5,inactive
CG10005,1,,,,7042,3.93e5,inactive
Abi,1,,,,7712,4.07e5,inactive
